In test [1] the target is T1, recombinant Tetrahymena thermophila Shulin (T. thermophila) (UniProt Q22YU3).
T1 sequence: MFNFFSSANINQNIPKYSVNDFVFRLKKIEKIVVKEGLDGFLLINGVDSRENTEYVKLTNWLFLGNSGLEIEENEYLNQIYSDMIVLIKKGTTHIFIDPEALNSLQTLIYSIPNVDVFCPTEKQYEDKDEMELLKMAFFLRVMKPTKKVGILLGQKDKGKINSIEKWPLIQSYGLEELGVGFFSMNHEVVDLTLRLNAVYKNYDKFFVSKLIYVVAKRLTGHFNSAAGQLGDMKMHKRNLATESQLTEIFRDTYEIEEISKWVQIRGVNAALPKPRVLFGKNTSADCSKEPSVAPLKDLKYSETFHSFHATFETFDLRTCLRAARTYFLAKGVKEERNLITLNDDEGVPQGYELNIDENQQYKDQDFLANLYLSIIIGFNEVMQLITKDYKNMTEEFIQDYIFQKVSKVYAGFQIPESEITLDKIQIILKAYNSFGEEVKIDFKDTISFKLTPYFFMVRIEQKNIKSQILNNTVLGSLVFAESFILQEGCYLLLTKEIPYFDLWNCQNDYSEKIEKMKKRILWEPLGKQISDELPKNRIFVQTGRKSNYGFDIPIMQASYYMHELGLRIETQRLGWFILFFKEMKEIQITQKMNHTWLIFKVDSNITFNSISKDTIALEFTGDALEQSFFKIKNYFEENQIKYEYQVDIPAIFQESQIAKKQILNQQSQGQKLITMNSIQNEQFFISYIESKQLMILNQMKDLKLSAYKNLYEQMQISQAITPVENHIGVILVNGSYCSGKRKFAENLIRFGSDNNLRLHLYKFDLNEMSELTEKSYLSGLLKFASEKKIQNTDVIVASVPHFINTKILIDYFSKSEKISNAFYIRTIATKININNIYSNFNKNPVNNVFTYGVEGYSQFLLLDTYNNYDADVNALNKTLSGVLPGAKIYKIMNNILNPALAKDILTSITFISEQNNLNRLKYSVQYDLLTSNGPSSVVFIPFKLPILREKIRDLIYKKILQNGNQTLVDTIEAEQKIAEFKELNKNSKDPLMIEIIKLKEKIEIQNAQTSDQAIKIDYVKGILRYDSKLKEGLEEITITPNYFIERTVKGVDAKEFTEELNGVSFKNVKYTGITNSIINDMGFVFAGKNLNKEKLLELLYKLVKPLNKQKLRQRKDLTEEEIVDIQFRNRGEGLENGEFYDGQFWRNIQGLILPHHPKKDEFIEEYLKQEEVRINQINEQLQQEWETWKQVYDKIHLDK
As to the kind of experiment: negative-stain EM; freshly isolated complexes of Shulin or DNAAF9 with Arl3-Q70L, 2% uranyl acetate, 2D class averages; ~18 Å 3D map of DNAAF9–Arl3; both purified.

The target of test [2] is T1, recombinant Tetrahymena thermophila Shulin (T. thermophila). As to the kind of experiment: SEC; Shulin or DNAAF9 with fourfold molar excess of Arl3 or ARL3 variants, 30 min on ice, 1 mM GDP or 1 mM GTP, Superdex 200 increase 3.2/300; coelution by SDS–PAGE; both purified.

Results are given in words; binding and its absence hold for the method and conditions named. Binding can be weak; no strength is given.

With “Tetrahymena thermophila Arl3-Q70L (His tag, bacterial) (T. thermophila)”, the binding result in test [1] and in test [2] was “binds” in each case.

The values are drawn from paper PMC12700831.
